Measured values from the supplement of paper PMC12823440, “Inhibitors supercharge kinase turnover through native proteolytic circuits” (Nature, 2025).
Structures can show the parent of a compound that is named as a salt. This is one part of the list. Hit calls seldom repeat between salt and free forms of one compound.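 In K562 cells expressing nanoluciferase-fused kinases, luminescence was recorded at 4 h intervals between 2 and 18 h, normalized as percent of control with DMSO at 100% and a positive control at 0%. A significant (2 sigma) signal drop marks a time point as decreased. The authors' rule for a hit is not shown and takes in more than the number of time points.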

Protein sequences, listed by entry. Tags and fused reporters are not part of them. Lines headed by an entry give the natural chain unless they say otherwise; changes in a name come on top.
UniProt P29317, whole entry: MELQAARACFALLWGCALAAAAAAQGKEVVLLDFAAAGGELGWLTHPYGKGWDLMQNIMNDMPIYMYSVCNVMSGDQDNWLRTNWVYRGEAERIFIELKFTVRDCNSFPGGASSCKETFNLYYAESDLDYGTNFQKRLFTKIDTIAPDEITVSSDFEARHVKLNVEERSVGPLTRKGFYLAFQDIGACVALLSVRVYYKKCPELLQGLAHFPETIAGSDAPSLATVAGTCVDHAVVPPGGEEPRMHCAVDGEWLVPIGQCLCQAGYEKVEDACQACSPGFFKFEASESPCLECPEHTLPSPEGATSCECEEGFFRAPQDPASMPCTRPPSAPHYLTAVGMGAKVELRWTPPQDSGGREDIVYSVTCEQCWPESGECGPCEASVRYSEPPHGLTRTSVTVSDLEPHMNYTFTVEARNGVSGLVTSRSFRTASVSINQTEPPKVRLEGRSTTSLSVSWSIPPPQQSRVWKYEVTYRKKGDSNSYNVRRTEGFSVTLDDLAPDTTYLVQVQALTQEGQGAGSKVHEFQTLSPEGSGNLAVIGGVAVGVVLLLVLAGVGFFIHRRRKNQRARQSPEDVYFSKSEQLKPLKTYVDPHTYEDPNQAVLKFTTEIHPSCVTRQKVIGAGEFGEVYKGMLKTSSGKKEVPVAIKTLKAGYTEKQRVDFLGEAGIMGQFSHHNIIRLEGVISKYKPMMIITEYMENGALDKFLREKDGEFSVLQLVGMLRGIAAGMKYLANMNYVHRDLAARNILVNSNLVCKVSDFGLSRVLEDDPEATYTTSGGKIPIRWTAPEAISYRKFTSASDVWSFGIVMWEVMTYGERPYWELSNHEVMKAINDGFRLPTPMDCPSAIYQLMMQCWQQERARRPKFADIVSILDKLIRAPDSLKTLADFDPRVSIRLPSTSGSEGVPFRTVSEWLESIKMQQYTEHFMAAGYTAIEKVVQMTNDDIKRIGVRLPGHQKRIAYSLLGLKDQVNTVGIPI
UniProt O75460: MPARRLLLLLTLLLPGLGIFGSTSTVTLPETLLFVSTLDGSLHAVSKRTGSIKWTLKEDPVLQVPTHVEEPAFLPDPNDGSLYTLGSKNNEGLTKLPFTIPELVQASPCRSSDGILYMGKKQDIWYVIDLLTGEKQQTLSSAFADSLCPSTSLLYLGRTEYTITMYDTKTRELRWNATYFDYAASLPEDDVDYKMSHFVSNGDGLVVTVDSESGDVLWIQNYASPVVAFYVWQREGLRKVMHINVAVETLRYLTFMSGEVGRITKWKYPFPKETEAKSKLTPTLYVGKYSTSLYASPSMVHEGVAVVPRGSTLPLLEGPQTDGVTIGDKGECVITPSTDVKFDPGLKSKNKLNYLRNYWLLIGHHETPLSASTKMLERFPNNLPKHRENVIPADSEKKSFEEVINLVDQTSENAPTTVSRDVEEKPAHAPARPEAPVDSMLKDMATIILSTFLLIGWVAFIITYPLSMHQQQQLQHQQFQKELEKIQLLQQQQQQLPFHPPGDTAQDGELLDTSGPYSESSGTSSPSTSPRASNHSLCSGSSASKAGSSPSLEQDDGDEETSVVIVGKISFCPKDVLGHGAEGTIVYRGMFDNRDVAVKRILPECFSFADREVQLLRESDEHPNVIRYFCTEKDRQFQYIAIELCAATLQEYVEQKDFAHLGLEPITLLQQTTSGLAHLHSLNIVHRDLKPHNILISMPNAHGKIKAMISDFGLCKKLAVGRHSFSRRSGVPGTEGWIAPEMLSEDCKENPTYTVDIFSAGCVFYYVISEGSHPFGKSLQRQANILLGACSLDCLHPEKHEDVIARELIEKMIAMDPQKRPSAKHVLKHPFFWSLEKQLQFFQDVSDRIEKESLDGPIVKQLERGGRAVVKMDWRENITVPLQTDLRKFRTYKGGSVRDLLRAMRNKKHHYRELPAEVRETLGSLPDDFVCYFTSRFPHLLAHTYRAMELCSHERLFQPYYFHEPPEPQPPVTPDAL
UniProt P11362, whole entry, looked up: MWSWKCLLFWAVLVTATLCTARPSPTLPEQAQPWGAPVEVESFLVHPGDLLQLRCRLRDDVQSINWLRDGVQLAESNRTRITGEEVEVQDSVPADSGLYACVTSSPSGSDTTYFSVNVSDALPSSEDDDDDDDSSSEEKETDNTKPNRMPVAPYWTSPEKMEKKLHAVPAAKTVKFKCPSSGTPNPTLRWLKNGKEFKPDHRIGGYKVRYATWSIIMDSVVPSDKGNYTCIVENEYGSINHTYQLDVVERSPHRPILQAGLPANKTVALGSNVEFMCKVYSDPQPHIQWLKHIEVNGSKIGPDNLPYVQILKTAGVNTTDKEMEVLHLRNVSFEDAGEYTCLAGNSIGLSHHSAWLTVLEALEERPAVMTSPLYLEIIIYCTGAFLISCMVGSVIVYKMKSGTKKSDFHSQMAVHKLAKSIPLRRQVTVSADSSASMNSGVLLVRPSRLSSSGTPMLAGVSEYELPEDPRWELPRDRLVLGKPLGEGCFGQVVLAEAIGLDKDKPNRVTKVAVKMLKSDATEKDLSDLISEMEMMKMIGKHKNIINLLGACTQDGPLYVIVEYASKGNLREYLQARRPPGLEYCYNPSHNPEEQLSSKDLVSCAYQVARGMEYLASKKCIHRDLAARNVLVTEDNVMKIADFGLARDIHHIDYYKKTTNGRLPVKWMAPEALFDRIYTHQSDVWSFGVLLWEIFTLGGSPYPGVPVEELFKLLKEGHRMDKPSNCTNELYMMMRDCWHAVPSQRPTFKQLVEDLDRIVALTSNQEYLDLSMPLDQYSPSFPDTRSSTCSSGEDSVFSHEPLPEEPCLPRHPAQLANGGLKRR
UniProt P22607, whole entry, looked up: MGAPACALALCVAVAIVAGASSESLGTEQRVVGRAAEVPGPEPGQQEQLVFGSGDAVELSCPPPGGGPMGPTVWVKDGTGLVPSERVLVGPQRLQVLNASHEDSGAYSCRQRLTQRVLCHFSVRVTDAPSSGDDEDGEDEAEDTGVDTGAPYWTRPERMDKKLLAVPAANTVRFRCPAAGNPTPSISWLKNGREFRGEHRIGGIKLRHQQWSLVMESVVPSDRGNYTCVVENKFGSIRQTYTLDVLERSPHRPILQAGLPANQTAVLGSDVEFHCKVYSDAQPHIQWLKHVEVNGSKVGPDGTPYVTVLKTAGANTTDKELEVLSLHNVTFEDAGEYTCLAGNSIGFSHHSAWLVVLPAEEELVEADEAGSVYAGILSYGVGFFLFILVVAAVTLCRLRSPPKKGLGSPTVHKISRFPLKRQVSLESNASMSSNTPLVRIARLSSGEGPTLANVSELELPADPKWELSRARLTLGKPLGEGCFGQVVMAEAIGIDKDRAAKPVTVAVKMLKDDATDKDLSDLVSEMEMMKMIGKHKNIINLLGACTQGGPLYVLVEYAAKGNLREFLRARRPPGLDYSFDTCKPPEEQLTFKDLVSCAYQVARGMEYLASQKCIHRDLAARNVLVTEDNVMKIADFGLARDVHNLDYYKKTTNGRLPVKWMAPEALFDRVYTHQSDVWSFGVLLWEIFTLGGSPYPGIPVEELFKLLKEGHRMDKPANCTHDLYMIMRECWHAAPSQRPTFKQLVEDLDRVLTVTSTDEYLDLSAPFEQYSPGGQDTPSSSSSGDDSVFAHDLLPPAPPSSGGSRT
UniProt P36888, whole entry: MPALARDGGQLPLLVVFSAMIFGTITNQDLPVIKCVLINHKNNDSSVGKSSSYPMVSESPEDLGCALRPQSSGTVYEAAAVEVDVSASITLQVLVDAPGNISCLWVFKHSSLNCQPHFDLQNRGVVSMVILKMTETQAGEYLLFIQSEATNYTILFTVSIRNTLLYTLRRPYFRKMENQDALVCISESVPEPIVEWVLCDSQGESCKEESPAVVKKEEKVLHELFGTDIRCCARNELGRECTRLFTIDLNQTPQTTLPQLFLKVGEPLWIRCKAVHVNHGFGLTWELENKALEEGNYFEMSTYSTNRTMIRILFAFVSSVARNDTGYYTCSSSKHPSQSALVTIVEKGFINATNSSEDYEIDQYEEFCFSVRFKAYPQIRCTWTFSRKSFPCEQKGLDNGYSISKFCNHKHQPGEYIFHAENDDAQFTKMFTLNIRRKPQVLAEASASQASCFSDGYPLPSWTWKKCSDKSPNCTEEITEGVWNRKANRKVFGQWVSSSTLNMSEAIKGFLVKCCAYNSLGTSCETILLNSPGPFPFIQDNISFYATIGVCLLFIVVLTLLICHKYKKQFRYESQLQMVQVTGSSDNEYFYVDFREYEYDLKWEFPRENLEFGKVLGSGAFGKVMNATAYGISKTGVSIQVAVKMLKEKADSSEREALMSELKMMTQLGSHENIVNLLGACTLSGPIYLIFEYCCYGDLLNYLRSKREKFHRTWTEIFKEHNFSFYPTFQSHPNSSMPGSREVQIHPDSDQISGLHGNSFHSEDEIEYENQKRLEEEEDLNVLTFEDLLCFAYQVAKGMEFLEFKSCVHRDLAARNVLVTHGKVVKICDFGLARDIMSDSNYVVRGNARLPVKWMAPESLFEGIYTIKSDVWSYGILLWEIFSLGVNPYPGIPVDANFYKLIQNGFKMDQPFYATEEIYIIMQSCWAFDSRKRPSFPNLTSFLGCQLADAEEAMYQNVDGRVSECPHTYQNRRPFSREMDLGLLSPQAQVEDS
UniProt Q9Y616: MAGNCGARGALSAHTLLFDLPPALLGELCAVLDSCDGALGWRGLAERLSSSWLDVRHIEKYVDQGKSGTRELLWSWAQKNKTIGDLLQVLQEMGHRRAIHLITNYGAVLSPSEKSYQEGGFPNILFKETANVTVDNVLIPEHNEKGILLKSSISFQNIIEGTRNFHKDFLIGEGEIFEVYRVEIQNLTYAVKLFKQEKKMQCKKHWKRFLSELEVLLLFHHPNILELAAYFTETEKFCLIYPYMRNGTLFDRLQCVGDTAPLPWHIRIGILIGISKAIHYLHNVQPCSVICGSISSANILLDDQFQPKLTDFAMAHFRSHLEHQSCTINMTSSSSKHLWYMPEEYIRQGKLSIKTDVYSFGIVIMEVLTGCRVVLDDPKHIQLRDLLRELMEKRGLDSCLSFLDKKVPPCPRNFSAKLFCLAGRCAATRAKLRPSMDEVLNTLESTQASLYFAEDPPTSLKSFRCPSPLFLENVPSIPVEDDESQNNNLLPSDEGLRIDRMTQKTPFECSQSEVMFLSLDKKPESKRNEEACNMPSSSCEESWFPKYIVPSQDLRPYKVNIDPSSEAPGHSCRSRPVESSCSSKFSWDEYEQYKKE
UniProt P06239: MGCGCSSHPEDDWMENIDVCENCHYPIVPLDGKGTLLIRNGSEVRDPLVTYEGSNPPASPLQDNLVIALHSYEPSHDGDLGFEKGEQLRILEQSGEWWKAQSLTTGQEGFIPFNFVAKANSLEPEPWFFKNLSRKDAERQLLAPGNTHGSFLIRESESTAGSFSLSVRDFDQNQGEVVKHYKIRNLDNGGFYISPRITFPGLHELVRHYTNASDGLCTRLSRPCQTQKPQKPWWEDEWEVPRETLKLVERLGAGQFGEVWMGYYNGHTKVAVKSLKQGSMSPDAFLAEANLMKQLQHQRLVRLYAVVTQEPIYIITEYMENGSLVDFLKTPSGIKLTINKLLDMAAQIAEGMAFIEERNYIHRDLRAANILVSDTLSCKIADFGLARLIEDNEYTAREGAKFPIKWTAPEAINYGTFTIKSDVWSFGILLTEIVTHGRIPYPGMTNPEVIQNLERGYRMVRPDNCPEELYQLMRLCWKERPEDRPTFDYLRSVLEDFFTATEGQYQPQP
UniProt P53667: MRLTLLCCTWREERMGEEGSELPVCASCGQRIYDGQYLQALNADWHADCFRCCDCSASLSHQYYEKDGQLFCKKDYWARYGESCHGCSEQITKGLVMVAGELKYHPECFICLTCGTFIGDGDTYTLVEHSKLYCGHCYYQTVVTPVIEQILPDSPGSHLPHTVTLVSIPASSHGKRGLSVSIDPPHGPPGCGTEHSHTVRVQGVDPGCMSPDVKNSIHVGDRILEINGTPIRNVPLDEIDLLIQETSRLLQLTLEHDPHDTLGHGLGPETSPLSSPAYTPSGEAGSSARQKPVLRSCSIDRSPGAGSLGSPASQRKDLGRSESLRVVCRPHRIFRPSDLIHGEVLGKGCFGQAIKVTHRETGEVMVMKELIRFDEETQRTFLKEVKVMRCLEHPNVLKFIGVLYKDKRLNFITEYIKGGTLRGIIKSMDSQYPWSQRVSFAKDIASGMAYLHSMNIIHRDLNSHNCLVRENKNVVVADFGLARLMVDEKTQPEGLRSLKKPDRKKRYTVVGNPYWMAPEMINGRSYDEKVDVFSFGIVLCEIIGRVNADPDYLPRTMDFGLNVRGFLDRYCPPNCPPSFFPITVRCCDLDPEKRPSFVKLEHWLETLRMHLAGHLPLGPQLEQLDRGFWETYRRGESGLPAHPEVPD

How the values were obtained:
Assay in all cases: number of time points (of 5) at which kinase-Nluc abundance scored as decreased, DMSO-normalised (count); higher = more persistent destabilization
Details in all cases: K562; 2-18 h
EGFR_L861Q = EGFR_L861Q (UniProt P00533)
EGFR_T790M = EGFR_T790M (UniProt P00533)
EPHA2 = EPHA2 (UniProt P29317)
ERBB3 = ERBB3 (UniProt P21860)
[1] = target: ERBB4_R711C (clone: ERBB4_mut) (UniProt Q15303)
ERN1 = ERN1 (UniProt O75460)
FGFR1 = FGFR1 (UniProt P11362)
FGFR2 = FGFR2 (UniProt P21802)
FGFR3 = FGFR3 (UniProt P22607)
FGR = FGR (UniProt P09769)
FLT3 = FLT3 (UniProt P36888)
FYN = FYN (UniProt P06241)
GSK3A = GSK3A (UniProt P49840)
HER2 = HER2 (UniProt P04626)
INSRR = INSRR (UniProt P14616)
IRAK3 = IRAK3 (UniProt Q9Y616)
JAK1 = JAK1 (UniProt P23458)
LCK = LCK (UniProt P06239)
LIMK1 = LIMK1 (UniProt P53667)
LIMK2 = LIMK2 (UniProt P53671)

Compound	number of time points (EGFR_L861Q)	number of time points (EGFR_T790M)	number of time points (EPHA2)	number of time points (ERBB3)	number of time points [1]	number of time points (ERN1)	number of time points (FGFR1)	number of time points (FGFR2)	number of time points (FGFR3)	number of time points (FGR)	number of time points (FLT3)	number of time points (FYN)	number of time points (GSK3A)	number of time points (HER2)	number of time points (INSRR)	number of time points (IRAK3)	number of time points (JAK1)	number of time points (LCK)	number of time points (LIMK1)	number of time points (LIMK2)
CN(C)Cc1cccc(N=C(c2ccccc2)c2c(O)[nH]c3cc(C(N)=O)ccc23)c1 (10 µM)	0	0	0	0	0	0	0	0	0	0	0	0	0	0	0	0	0	0	0	0
CC1(N)CCN(c2cnc3c(-c4cccc(Cl)c4Cl)[nH]nc3n2)CC1 (2.5 µM)	0	0	0	0	0	0	0	0	0	0	0	0	0	0	0	0	0	0	0	0
C=CC(=O)N1CCC(Oc2cc3c(Nc4ccc(Cl)c(Cl)c4F)ncnc3cc2OC)CC1 [Poziotinib] (2.5 µM)	0	0	0	0	0	0	0	0	0	0	0	0	0	2	0	0	0	0	0	0
Cn1cc(-c2ccc3nnc(C(F)(F)c4ccc5ncccc5c4)n3n2)cn1 (10 µM)	0	0	0	0	0	0	0	0	0	0	0	0	0	0	0	0	0	0	0	0
CN(CC(=O)N(Cc1ccc(C2CCCCC2)cc1)c1ccc(C(=O)O)c(O)c1)S(=O)(=O)c1c(F)c(F)c(F)c(F)c1F (2.5 µM)	0	0	0	0	0	0	0	0	0	0	0	0	0	0	0	0	0	0	0	0
CC(C)C[C@H](NC(=O)[C@H](CCCCN)NC(=O)[C@H](CO)NC(=O)[C@@H](N)CC(C)C)C(N)=O [LSKL, Inhibitor of Thrombospondin (TSP-1) (TFA)] (10 µM)	0	0	0	0	0	0	0	0	0	0	0	0	0	0	0	0	0	0	0	0
N=C(N)NC(=N)NCCc1ccccc1 [Phenformin (hydrochloride)] (10 µM)	0	0	0	0	0	0	0	0	0	0	0	0	0	0	0	0	0	0	0	0
O=c1[nH]ccc2cc(OC3CCNCC3)ccc12 (10 µM)	0	0	0	0	0	0	0	0	0	0	0	0	0	0	0	0	0	0	0	0
CCn1nc(C2CCN(C(=O)CCO)CC2)nc1-c1cnc(N)c(-c2nnc(C(C)(C)C)o2)n1 (10 µM)	0	0	0	0	0	0	0	0	0	0	0	0	0	0	0	0	0	0	0	0
CCN1/C(=C/C(C)=O)Sc2ccc(OC)cc21 (10 µM)	1	1	0	3	2	1	0	0	0	1	0	0	0	0	4	0	1	0	0	0
CN(C)c1ncnc2nc[nH]c12 [6-(Dimethylamino)purine] (10 µM)	0	0	0	0	0	0	0	0	0	0	0	0	0	0	0	0	0	0	0	0
CNC(=O)c1ccc(-c2cnc3cnc(-c4ccccc4)cn23)cc1 (10 µM)	0	0	0	0	0	0	0	0	0	0	0	0	0	0	0	0	0	0	0	0
CCCCNC(=N)NC(=N)N [Buformin (hydrochloride)] (2.5 µM)	0	0	0	0	0	0	0	0	0	0	0	0	0	0	0	0	0	0	0	0
COC(=O)N[C@@H](C)CNc1nccc(-c2cn(C(C)C)nc2-c2cc(Cl)cc(NS(C)(=O)=O)c2F)n1 [Encorafenib] (10 µM)	0	0	0	0	0	0	0	0	0	0	0	0	0	0	0	0	0	0	0	0
COc1nc(-c2ccnc(NC(=O)C3CC3)c2)sc1C(N)=O [GSK-3β inhibitor 2] (10 µM)	0	0	0	0	4	0	0	0	0	0	1	0	0	0	0	0	0	0	0	0
CCCNC(=O)c1cn2ncnc(Nc3cc(C(=O)NC4CC4)ccc3C)c2c1C (10 µM)	0	0	0	0	0	0	0	0	0	0	0	0	0	0	0	0	0	0	0	0
CCc1cccc(CC)c1NC(=O)c1nn(C)c2c1CCc1cnc(Nc3ccc(C(=O)NC4CCN(C)CC4)cc3OC(F)(F)F)nc1-2 (2 µM)	0	0	0	0	0	0	0	0	0	0	0	0	0	0	0	0	0	0	0	0
CC[C@@H](N)CNc1ccnc(-c2cc(-c3cnn(C)c3)ccc2O)n1 (2.5 µM)	3	0	0	0	3	0	0	0	0	0	4	0	0	0	0	1	0	0	0	0
C=CS(=O)(=O)c1ccc(Nc2nc(OCC3CCCCC3)c3[nH]cnc3n2)cc1 (2.5 µM)	0	0	0	0	0	0	0	0	0	0	0	0	0	0	0	3	0	0	0	0
Fc1c(Br)cccc1Nc1ncnc2cc3c(cc12)OCCO3 (2.5 µM)	1	0	0	0	1	1	0	0	0	0	0	0	0	1	1	0	0	0	0	0
COc1cc(N2CCC(N(C)C)CC2)ccc1Nc1ncc(Cl)c(Nc2ccccc2P(C)(C)=O)n1 (2.5 µM)	0	0	0	0	0	0	0	1	2	0	0	1	0	0	3	2	0	0	0	0
CCCC(=O)Nc1nc2c(ncn2[C@@H]2O[C@@H]3COP(=O)(O)O[C@H]3[C@H]2OC(=O)CCC)c(=O)[nH]1 [Dibutyryl-cGMP (sodium)] (10 µM)	0	0	0	0	0	0	0	0	0	0	0	0	0	0	0	0	0	0	0	0

Grouped by structure: the compounds so far with an aryl methoxy group (4)
Compound	number of time points (EGFR_L861Q)	number of time points (EGFR_T790M)	number of time points (EPHA2)	number of time points (ERBB3)	number of time points [1]	number of time points (ERN1)	number of time points (FGFR1)	number of time points (FGFR2)	number of time points (FGFR3)	number of time points (FGR)	number of time points (FLT3)	number of time points (FYN)	number of time points (GSK3A)	number of time points (HER2)	number of time points (INSRR)	number of time points (IRAK3)	number of time points (JAK1)	number of time points (LCK)	number of time points (LIMK1)	number of time points (LIMK2)
C=CC(=O)N1CCC(Oc2cc3c(Nc4ccc(Cl)c(Cl)c4F)ncnc3cc2OC)CC1 [Poziotinib] (2.5 µM)	0	0	0	0	0	0	0	0	0	0	0	0	0	2	0	0	0	0	0	0
CCN1/C(=C/C(C)=O)Sc2ccc(OC)cc21 (10 µM)	1	1	0	3	2	1	0	0	0	1	0	0	0	0	4	0	1	0	0	0
COc1nc(-c2ccnc(NC(=O)C3CC3)c2)sc1C(N)=O [GSK-3β inhibitor 2] (10 µM)	0	0	0	0	4	0	0	0	0	0	1	0	0	0	0	0	0	0	0	0
COc1cc(N2CCC(N(C)C)CC2)ccc1Nc1ncc(Cl)c(Nc2ccccc2P(C)(C)=O)n1 (2.5 µM)	0	0	0	0	0	0	0	1	2	0	0	1	0	0	3	2	0	0	0	0
